Measurements as given in PMC10401043.
Results are given in words; binding and its absence hold for the method and conditions named. In cells and extracts the contact can be indirect. Some entries that bind do so weakly or less than the wild type.

Sequences of proteins named here, by UniProt entry; tags and fusion partners are left off. Residues count along the entry.
UniProt P35579, residues 1795-1960: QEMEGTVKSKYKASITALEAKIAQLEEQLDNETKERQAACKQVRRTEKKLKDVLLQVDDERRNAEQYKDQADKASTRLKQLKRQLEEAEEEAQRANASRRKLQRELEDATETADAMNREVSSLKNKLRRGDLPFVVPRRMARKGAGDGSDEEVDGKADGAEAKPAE

Target: GST-myosin II heavy chain tail (amino acids 1795-1960) (UniProt P35579)
Experiment: pull-down; 10 μg purified GST-tagged protein on Glutathione Sepharose 4B, 200 μl precleared lysate of MelJuSo cells (siRNA control), 30 min at 4°C, western blot; only the target purified

binding: binds
B1: Retinoic Acid-Induced 14 (Rai14), endogenous in MelJuSo cells (protein, UniProt Q9P0K7 1-980)
chain: MKSLKAKFRKSDTNEWNKNDDRLLQAVENGDAEKVASLLGKKGASATKHDSEGKTAFHLAAAKGHVECLRVMITHGVDVTAQDTTGHSALHLAAKNSHHECIRKLLQSKCPAESVDSSGKTALHYAAAQGCLQAVQILCEHKSPINLKDLDGNIPLLLAVQNGHSEICHFLLDHGADVNSRNKSGRTALMLACEIGSSNAVEALIKKGADLNLVDSLGYNALHYSKLSENAGIQSLLLSKISQDADLKTPTKPKQHDQVSKISSERSGTPKKRKAPPPPISPTQLSDVSSPRSITSTPLSGKESVFFAEPPFKAEISSIRENKDRLSDSTTGADSLLDISSEADQQDLLSLLQAKVASLTLHNKELQDKLQAKSPKEAEADLSFDSYHSTQTDLGPSLGKPGETSPPDSKSSPSVLIHSLGKSTTDNDVRIQQLQEILQDLQKRLESSEAERKQLQVELQSRRAELVCLNNTEISENSSDLSQKLKETQSKYEEAMKEVLSVQKQMKLGLVSPESMDNYSHFHELRVTEEEINVLKQDLQNALEESERNKEKVRELEEKLVEREKGTVIKPPVEEYEEMKSSYCSVIENMNKEKAFLFEKYQEAQEEIMKLKDTLKSQMTQEASDEAEDMKEAMNRMIDELNKQVSELSQLYKEAQAELEDYRKRKSLEDVTAEYIHKAEHEKLMQLTNVSRAKAEDALSEMKSQYSKVLNELTQLKQLVDAQKENSVSITEHLQVITTLRTAAKEMEEKISNLKEHLASKEVEVAKLEKQLLEEKAAMTDAMVPRSSYEKLQSSLESEVSVLASKLKESVKEKEKVHSEVVQIRSEVSQVKREKENIQTLLKSKEQEVNELLQKFQQAQEELAEMKRYAESSSKLEEDKDKKINEMSKEVTKLKEALNSLSQLSYSTSSSKRQSQQLEALQQQVKQLQNQLAECKKQHQEVISVYRMHLLYAVQGQMDEDVQKVLKQILTMCKNQSQKK
